Assay results taken from patent publication US10245278B2 (priority 2013, dated 2019).

Test: Blind bitterness evaluation by a panel of three trained experts
Parameters: species or system human; key to bitterness score from each expert: 1=not satisfactory; 2=fair; 3=satisfactory (no bitterness)

With `OC[C@@H](O)[C@@H](O[C@H]1O[C@H](CO)[C@@H](O)[C@H](O)[C@H]1O)[C@H](O)[C@@H](O)CO` [maltitol] the “bitterness score from each expert” value (individual mark 1 to 3, without dilution in water) was 2 and the “total bitterness score (panel of experts)” value (three experts, total score from 3 to 9, without addition of water) was 7.
